Results deposited as PubChem BioAssay AID1224830 (NIAID, 2016).
Shown is a random part of about 18,000 reagents tested. In the full data, about 2,900 (16%) were called active. 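Calls are made per well; low scores hint the gene aids the LPS response, high scores that it dampens it.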 Entries without a mark were called inactive. Repeated entries: four replicate wells of each siRNA pool.

- Test: 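Host factors that control LPS-induced TNF expression in human macrophages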 (primary screen)
- Cell system: human THP-1 monocytic leukaemia cells, TNF dual-luciferase reporter clone, PMA-differentiated to macrophage-like cells
- Knock-down reagent: siRNA pool against human genes, 50 nM
- Timing: LPS for 4 h, given about 3 days after siRNA transfection
- Conditions: bacterial LPS (TLR4 ligand), 10 ng/ml
- Measured: 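TNF firefly reporter luminescence divided by renilla, normalised to the plate median, then turned into a robust z-score for each replicate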
- Reading the numbers: TNF reporter robust z-score: higher = stronger TNF reporter response to LPS
- Rule for the call: 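a well is active when its z-score exceeds 2.8 or falls below -1.5; control wells carry no call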

| gene symbol | TNF reporter robust z-score |
| --- | --- |
| TOR1AIP1 | 0.36 |
| TOR1AIP1 | -1.26 |
| TOR1AIP1 | 0.01 |
| TOR1AIP1 | 0.17 |
| KRT6A | 1.14 |
| KRT6A | 0.75 |
| KRT6A | 0.1 |
| KRT6A | 0.6 |
| VGLL3 | 3.33 (active) |
| VGLL3 | 2.42 |
| VGLL3 | 2.57 |
| VGLL3 | 3.27 (active) |
| SLC39A11 | -0.21 |
| SLC39A11 | 0.07 |
| SLC39A11 | -0.43 |
| SLC39A11 | 0.17 |
| ADD1 | 0.88 |
| ADD1 | 1.68 |
| ADD1 | -0.33 |
| ADD1 | 1.02 |
| HYI | -0.31 |
| HYI | 0.07 |
| HYI | -0.28 |
| HYI | -0.18 |
| CPLANE2 | -0.4 |
| CPLANE2 | 0.55 |
| CPLANE2 | 1 |
| CPLANE2 | 1.05 |
| SBSPON | 0.78 |
| SBSPON | 1.81 |
| SBSPON | 0.86 |
| SBSPON | 1.06 |

Next part; the last 5 above are carried over.
| gene symbol | TNF reporter robust z-score |
| --- | --- |
| CPLANE2 | 1.05 |
| SBSPON | 0.78 |
| SBSPON | 1.81 |
| SBSPON | 0.86 |
| SBSPON | 1.06 |
| SCT | -1.17 |
| SCT | -1.18 |
| SCT | -0.91 |
| SCT | -0.85 |
| SLC6A2 | -0.84 |
| SLC6A2 | -0.2 |
| SLC6A2 | -0.04 |
| SLC6A2 | 0 |
| B9D2 | 0.82 |
| B9D2 | 1.07 |
| B9D2 | 1.5 |
| B9D2 | 1.76 |
| CHCHD3 | -0.63 |
| CHCHD3 | -0.42 |
| CHCHD3 | 1.31 |
| CHCHD3 | -0.41 |
